“And” between values parts separate entries of the source, which are not always exact repeats. Equal entries are not always repeated. In all, about 300,000 compounds went through this assay and about 3,700 (1.2%) were called active. The inconclusive results got no clear call from the source; some entries with a clear call stand among them for comparison. The call rests on the fitted dose curve; tested in HEK293 cells. Potencies beside an inconclusive call are fits to weak or partial responses and may not hold up.
Test: qHTS for Inhibitors of binding or entry into cells for Lassa Virus; further: nearly all actives have a fitted effect of over 50% in size
Details: Lassa virus pseudotype entry inhibition, cell reporter; activity change, negative = inhibition: at 37.9 µM (top of the series) unless noted
In the case of `N#C/C(=C/c1cn(-c2ccccc2)nc1-c1cccc(OCc2ccccc2)c1)C(=O)NCCCn1ccnc1`, the Potency is reported as inconclusive: 14.1 µM [inhibitor, single point].
For `Cc1ccc(OCc2nc(-c3ccccn3)no2)c(Br)c1`, the Potency was inconclusive: 7.3 µM [inhibitor, partial curve, poor fit].
In the case of `O=c1c2c3c(sc2ncn1/N=C/c1ccc([N+](=O)[O-])o1)CCCC3`, the Potency is reported as inconclusive: 6.31 µM [inhibitor, single point].
For `Cc1cc(=O)nc2c3ccccc3n(CC(=O)NCCC3=CCCCC3)n12`, the Potency was “inactive”.
For `CCOC(=O)c1noc2ncnc(N3CCN(c4cccc(C(F)(F)F)c4)CC3)c12`, the Potency was “inactive”.
For `O=C(c1cc(-c2ccc3c(c2)OCO3)on1)N1CCOCC1`, the Potency was inconclusive: 16.4 µM [inhibitor, partial curve, poor fit].
With `O=C(COc1ccccc1)Nc1ccc(C(=O)N2CCCC2)cc1` the Potency was inconclusive: 35.5 µM [activator, single point].
For `Cc1cc(C)c2c(CC(=O)NCCc3ccccc3)coc2c1`, the Potency was inconclusive: 3.98 µM [inhibitor, partial curve, poor fit].
With `Clc1ccc(-c2cc3ccccc3[nH]2)cc1` the Potency was inconclusive: 1.12 µM [activator, partial curve].
With `COc1ccc(C(=O)N(C)C2CCCCC2)cc1OC1CCN(C(C)C)CC1` the Potency was “inactive”.
For `Cn1ccc(NC(=O)CCl)n1`, the Potency was inconclusive: 20 µM [inhibitor, partial curve, poor fit].
In the case of `COc1ccc(/C=C/C2=NNC(=O)CC2)cc1`, the Potency is reported as “inactive”.
In the case of `CCCCCOC(=O)CSc1nc2sc3c(c2c(=O)n1-c1ccccc1)CC(C)(CC)OC3` (stereo not drawn), the Potency is reported as “inactive”.
With `COc1cccc(C(=O)NCCOc2cc(C)cc(C)c2)c1` the Potency was “inactive”.
In the case of `O=C(Nc1ccccc1)c1cccnc1N1CCCC1`, the Potency is reported as inconclusive: 25.9 µM [activator, single point].
For `COC(=O)c1ccc(N2C(=O)CC(N3CCC(n4c(=O)[nH]c5ccccc54)CC3)C2=O)cc1` (stereo not drawn), the Potency was “inactive”.
With `CCN(CC)c1ccc(/C=N/N=C(c2ccccc2)c2ccccc2)c(O)c1` the Potency was active: 10.3 µM.
For `CCOc1ccc2nc(NC(=O)c3cnc(C)cn3)sc2c1`, the Potency was “inactive”.
With `c1ccc(-c2n[nH]c(-c3ccccn3)n2)nc1` the Potency was inconclusive: 1.12 µM [inhibitor, partial curve, poor fit] and inconclusive: 9.2 µM [inhibitor, partial curve, poor fit].
In the case of `O=C(CN1CCN(S(=O)(=O)c2ccccc2)CC1)NCCc1ccccc1`, the Potency is reported as inconclusive: 0.112 µM [activator, full curve, poor fit].
In the case of `COc1ccc(-c2ccc(-c3noc(-c4ccccc4C)n3)c(OC)n2)cc1`, the Potency is reported as “inactive”.
For `COc1cccc(CC2(CO)CCCN(CC3=Cc4cc(Cl)ccc4OC3)C2)c1` (stereo not drawn), the Potency was inconclusive: 10 µM [inhibitor, partial curve, poor fit].
With `CCCn1cc(S(=O)(=O)c2ccc(OC)cc2)c(=O)c2cc(F)c(N3CCCC(C)C3)cc21` (stereo not drawn) the Potency was inconclusive: 6.31 µM [inhibitor, partial curve].
With `COc1ccccc1N(CC(=O)N/N=C/c1ccc(OCC(=O)NCc2ccco2)cc1)S(=O)(=O)c1ccc(C)cc1` the Potency was inconclusive: 22.4 µM [inhibitor, single point].
For `CCn1nc(C(=O)NCCc2ccc3c(c2)OCCO3)c2ccccc2c1=O`, the Potency was inconclusive: 35.5 µM [inhibitor, single point].
For `CC(NC(=O)Nc1ccc([N+](=O)[O-])cc1)C(c1cccs1)N1CCCC1` (stereo not drawn), the Potency was inconclusive: 2.24 µM [inhibitor, full curve].
In the case of `Cc1cccc(-c2noc(CCCC(=O)NC3CCCC3)n2)c1`, the Potency is reported as “inactive”.
For `Cc1ccc(CN2CCC(c3cc(-c4cccs4)n[nH]3)CC2)cc1`, the Potency was inconclusive: 14.1 µM [inhibitor, single point].
In the case of `COc1ccc(OCC(=O)N2CCCC(N3CCN(c4ccccc4C)CC3)C2)cc1` (stereo not drawn), the Potency is reported as inconclusive: 10 µM [inhibitor, partial curve, poor fit].
For `CCOc1cc(C(=O)Nc2ccc3c(c2)OCO3)ccc1OCCOc1ccccc1Cl`, the Potency was inconclusive: 1.58 µM [inhibitor, partial curve, poor fit].
With `Cn1c(=O)c2c(nc(N/N=C/c3ccc(OC(=O)c4ccco4)cc3)n2Cc2ccccc2Cl)n(C)c1=O` the Potency was inconclusive: 3.16 µM [inhibitor, single point].
In the case of `CCOC(=O)N1CCN(C(=S)Nc2ccc(C)cc2)CC1`, the Potency is reported as “inactive”.
For `Cc1ccc(C)c(N2CCN(CCCNC(=O)c3cnn(-c4ccccc4)c3C3CCN(C(=O)OC(C)(C)C)CC3)CC2)c1`, the Potency was inconclusive: 35.5 µM [inhibitor, single point].
With `Cn1nc(C(=O)NC2CCCCCC2)ccc1=O` the Potency was “inactive”.
With `O=C(c1cccs1)N1N=C(c2ccc(O)cc2)CC1c1ccccc1` (stereo not drawn) the Potency was inconclusive: 6.31 µM [inhibitor, full curve, poor fit].
For `Cc1ccc2c(CN(C)Cc3ccccc3)cc(=O)oc2c1C`, the Potency was inconclusive: 8.91 µM [inhibitor, partial curve, poor fit].
For `COc1ccc(-c2nc(-c3cccs3)no2)cc1`, the Potency was active: 1.78 µM.
For `COc1ccc(C2C(CN3CCOCC3)C(=O)N2c2ccccc2)cc1` (stereo not drawn), the activity change, negative = inhibition was inconclusive: 29.4% [activator].
With `CCOc1ccccc1N1CC(C(=O)Nc2ccc(S(=O)(=O)N3CCCCC3)cc2)CC1=O` (stereo not drawn) the Potency was inconclusive: 0.447 µM [activator, single point].
For `CCN(CC)S(=O)(=O)c1ccc2oc(C(=O)N3CCCCCC3)c(C)c2c1`, the Potency was inconclusive: 29.1 µM [inhibitor, partial curve, poor fit].
For `CCn1c2ccccc2c2nc3cc(OC)c(OC)cc3nc21`, the Potency was “inactive”.
With `COCCNC(=O)C(c1ccc(C)cc1)N(Cc1cccs1)C(=O)CCC(=O)Nc1ccccn1` (stereo not drawn) the Potency was inconclusive: 2.82 µM [inhibitor, single point].
With `COc1cccc(C2/C(=C(\O)c3ccc4c(c3)OCCO4)C(=O)C(=O)N2CCN(C)C)c1` (stereo not drawn) the Potency was inconclusive: 35.5 µM [activator, single point].
On the % scale 0 is the no-effect control and ±100 the full control effect; potency means the concentration at half of the fitted maximal effect.
